Screen size: about 320,000 compounds; about 2,100 (0.66%) were called active. The shares of active, inactive and inconclusive entries below differ from those in the screen. Calls come from the whole dose curve; as a rule, active = well fitted inhibition curve with a large enough effect in the signal ratio, with a control signal flat (not every such curve was filed as active); inconclusive = small, poorly fitted or top-dose-only effect, or effect the other way, or a change in a side signal; inactive = flat fitted curve, though single readings scatter; the % refers to the signal ratio. A potency beside an inconclusive call is a rough fit, not a confirmed value.
assay: qHTS Assay for Lipid Storage Modulators in Drosophila S3 Cells; details: BODIPY lipid droplet fluorescence, 18-24 h, cells fed with added oleic acid; lipid storage change, negative = inhibition: at 46.1 µM (top of the series) unless noted
Outline: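 Drosophila S3 cells got compounds at several concentrations plus oleic acid (400 uM solution). Laser-scanning cytometry with 488 nm excitation read lipid droplets at 500-530 nm and cells at 575-640 nm. Percent activity was relative to 20 uM Triacsin C.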
% is set by controls: 0 for no effect and ±100 for the full control effect; potency is the fitted concentration of half-maximal effect.

SMILES | Potency | lipid storage change, negative = inhibition | outcome
C=CCSc1nc2c(sc3nc(C)cc(C)c32)c(=O)[nH]1 | inconclusive: 0.461 µM [activator, single point] | – | –
COCCn1c(Cc2ccccc2)nnc1SCC(=O)NC(C)C | inconclusive: 29.1 µM [falling, single point] | – | –
O=C(Nc1ccc(Cl)cc1)C(c1ccccc1)N1CCOCC1 (stereo unspecified) | – | inconclusive: -79.9% | –
CCN(Cc1ccncc1)C(=O)c1cc(COc2c(C)cccc2C)on1 | – | inconclusive: 13.4% | –
CCCNC(=O)CS(=O)Cc1nc(-c2ccc(OC)cc2)oc1C (stereo unspecified) | – | inconclusive: 9.77% | –
CSc1ncccc1C(=O)Nc1cccc(C)n1 | – | inconclusive: -73.7% [cytotoxic] [at 0.00295 µM] | –
O=C(Nc1c2c(nn1-c1ccccc1)CS(=O)(=O)C2)c1ccco1 | – | inconclusive: 8.19% | –
COc1cccc2oc3ccc(C#Cc4ccccn4)cc3c(=O)c12 | active: 0.731 µM | – | –
O=C(CSc1nc(N2CCOCC2)nc(N2CCOCC2)n1)Nc1cccc(C(F)(F)F)c1 | – | inconclusive: 25.6% | –
OCC1CCN(Cc2nc(Cc3ccccc3Cl)no2)CC1 | inconclusive: 0.116 µM [falling, full curve, poor fit] | – | –
CS/C(=C\[N+](=O)[O-])Nc1ccc(C)cc1 | – | inconclusive: 0.702% | –
CCOC(=O)N1CCN(S(=O)(=O)N2CCCC(C(=O)NCc3ccc(F)cc3)C2)CC1 (stereo unspecified) | inconclusive: 0.082 µM [falling, full curve, poor fit] | – | –
COc1ccc(C(=O)NCc2ccccc2OC)c(OC)c1 | – | inconclusive: 17% | –
Cc1ccc(S(=O)(=O)CCC(=O)Nc2nc(-c3cccnc3)cs2)cc1 | active: 13 µM | – | –
CCOC(=O)/C(C#N)=C/C=C1\C=Cc2ccccc2N1CC | inconclusive: 16.4 µM [falling, partial curve, poor fit] | – | –
N#CCCn1cc(C(=O)N2CCCCC2)c(-c2cccc([N+](=O)[O-])c2)n1 | inconclusive: 6.51 µM [falling, single point] | – | –
CCc1nnc(NC(=O)c2ccc(S(=O)(=O)NCC(C)C)cc2)s1 | – | inconclusive: 5.72% | –
CCc1ccc(-n2nc3cc(C)c(N)cc3n2)cc1 | – | inconclusive: -43.7% | –
O=C(CCNc1ccc(Br)cc1)c1cccc([N+](=O)[O-])c1 | – | inconclusive: -7.53% | –
CC(NC(=O)NCC1CCCO1)(C(F)(F)F)C(F)(F)F (stereo unspecified) | inconclusive: 0.651 µM [cytotoxic, full curve, poor fit] | – | –
COc1ccc(C(C)=O)cc1CC(=O)NCCCn1ccnc1 | inconclusive: 29.1 µM [falling, single point] | – | –
COCCNC(=S)N1CCc2cc(OC)c(OC)cc2C1COc1ccc(C(C)C)cc1 (stereo unspecified) | – | inconclusive: -52% | –
Cc1cccnc1NC(=O)c1ccc(COc2ccccc2)o1 | – | inconclusive: 15% | –
Cc1c(O)c(=O)ccn1C | – | inconclusive: -2.32% | –
Cc1ccc(-c2nc3sc4c(N)ncnc4c3c3c2CCCC3)cc1 | – | inconclusive: 35.3% | –
Cc1ccc(NC(=O)C(C)OC(=O)CCN=C2NS(=O)(=O)c3ccccc32)cc1 (stereo unspecified) | – | inconclusive: 16% | –

Given with tabs: 2 of the compounds above
SMILES	Potency	lipid storage change, negative = inhibition	outcome
Cc1c(O)c(=O)ccn1C	–	inconclusive: -2.32%	–
Cc1ccc(-c2nc3sc4c(N)ncnc4c3c3c2CCCC3)cc1	–	inconclusive: 35.3%	–

Next structures.

SMILES | Potency | lipid storage change, negative = inhibition | outcome
Nc1ccc2nc(SCC(=O)N3CCN(c4ccccc4)CC3)sc2c1 | – | inconclusive: 11.2% | –
O=C(O)C1CCCN1S(=O)(=O)c1ccc2c(c1)CCC2 (stereo unspecified) | inconclusive: 0.0052 µM [falling, full curve, poor fit] | – | –
Clc1ccc(Cn2ccc(C3CC3)n2)cc1 | – | inconclusive: 17.6% | –
COCCNC(=O)c1csc2c1CCCC2 | – | inconclusive: 13.2% | –
COC(=O)c1cc(NC(=O)c2cc3ccccc3o2)cc(C(=O)OC)c1 | inconclusive: 14.6 µM [falling, partial curve] | – | –
CCC(=O)c1ccc(OCC(=O)OCC(=O)c2cc(C)n(C3CC3)c2C)cc1 | – | inconclusive | –
Cc1cc(NC(=O)CCC(=O)N(CC(=O)NCC2CCCO2)c2cccc(F)c2)no1 (stereo unspecified) | inconclusive: 4.61 µM [activator, partial curve, poor fit] | – | –
COc1ccc(C2=C(CN(C)C)C(c3ccccc3)c3ccccc3O2)cc1 (stereo unspecified) | – | inconclusive: -123% | –
COC(=O)[C@@H]1CCCN1Cc1nc(Cc2ccc(OC)c(OC)c2)no1 | inconclusive: 29.1 µM [activator, single point] | – | –
CCN(CC)S(=O)(=O)c1ccc2c(c1)c(=O)c(C(=O)NCCCN(C)c1ccccc1)cn2C | inconclusive: 5.8 µM [activator, partial curve] | – | –
Cc1ccc(NC(=O)Nc2cnc3ccccc3c2)cc1 | – | inconclusive: -8.73% | –
Cc1ccc(-c2csc3nnc(SCC(=O)N4CCN(Cc5ccccc5)CC4)n23)cc1 | – | inconclusive: -1.06% | –
CC(C)(C)c1cc(=O)[nH]c(SCc2ccccc2)n1 | – | inconclusive: 13.5% | –
Cc1ccc(CCNC(=O)c2ccc(CS(=O)(=O)Cc3ccccc3F)o2)cc1 | inconclusive: 6.51 µM [falling, single point] | – | –
COc1ccccc1NC(=O)Nc1nc(CC(=O)Nc2ccccc2F)cs1 | inconclusive: 29.1 µM [falling, single point] | – | –
CC(C)c1ccc(NC(=O)COC(=O)/C=C/c2cccc([N+](=O)[O-])c2)cc1 | inconclusive: 7.31 µM [activator, partial curve, poor fit] | – | –
COc1ccc(NC(=O)CN2CCN(S(=O)(=O)c3ccc(Cl)cc3)CC2)cc1Cl | – | inconclusive: -38.5% | –
O=C1C2N=NN(CC(=O)N3N=C(c4ccccc4)CC3c3ccc([N+](=O)[O-])cc3)C2C(=O)N1c1ccccc1 (stereo unspecified) | inconclusive: 29.1 µM [rising, partial curve, poor fit] | – | –
COc1ccc(OC)c(NC(=O)CCS(=O)(=O)c2cc3c(cc2C)NC(=O)CO3)c1 | inconclusive: 18.4 µM [falling, single point] | – | –
CCc1ccccc1N(CC(=O)N1CCN(c2ccccc2)CC1)S(C)(=O)=O | inconclusive: 4.61 µM [activator, full curve] | – | –
COC(=O)C1=CN(C2CC2)C=C(C(=O)OC)C1c1ccc(C(=O)OC)cc1 | – | inconclusive: 15.8% | –
CCOC(=O)Cn1nc(C)c(NC(=O)c2cccc([N+](=O)[O-])c2)c1C | – | inconclusive: -9.03% | –
CCc1ccc(NC(=O)NNC(=O)c2cc3ccccc3cc2O)cc1 | – | inconclusive: 31.3% | –
O=C(CCNC(=O)c1ccc([N+](=O)[O-])cc1)Nc1ccc(F)cc1 | – | inconclusive: -16.3% | –
Cc1ccc(S(=O)(=O)NC(C)C(=O)NC(C)c2cccs2)cc1 (stereo unspecified) | inconclusive: 29.1 µM [activator, single point] | – | –
O=C(Nc1ccc(CN2CCOCC2)cc1)c1cccc(-c2cc3ccccc3oc2=O)c1 | – | inconclusive: 1.47% | –

SMILES | Potency | lipid storage change, negative = inhibition | outcome
CC1Cc2ccccc2N1NC(=O)c1ccc(Cl)c(S(N)(=O)=O)c1 (stereo unspecified) | – | inconclusive: -8.52% | –
COC(=O)c1cnc(Oc2c(Cl)cc(N)cc2Cl)cc1C(F)(F)F | – | inconclusive: -23.9% | –
CNC(=O)c1sccc1S(=O)(=O)Cc1c(Cl)cccc1Cl | inconclusive: 2.59 µM [activator, partial curve] | – | –
O=C(C1CC1c1ccccc1)N1CCN(c2cccc(Cl)c2)CC1 (stereo unspecified) | – | inconclusive: 18.6% | –
CC(C)CCN(C(=O)C1CCCC1)c1c(N)n(Cc2ccccc2)c(=O)[nH]c1=O | inconclusive: 6.51 µM [activator, single point] | – | –
Cn1c(SCC(=O)c2ccccc2)nnc1-c1ccccn1 | inconclusive: 20.6 µM [activator, single point] | – | –
COc1ccc(-n2nc3c(c2NC(=O)COc2ccccc2)CS(=O)C3)cc1 (stereo unspecified) | – | inconclusive: 4.92% | –
Nc1ccc(-n2ccnc2)cc1 | – | inconclusive: 25.2% | –
COCCCNC(=O)CSC1=Nc2ccccc2C2=NC(CC(=O)NCc3ccccc3)C(=O)N12 (stereo unspecified) | – | inconclusive: -19.3% | –
Cc1ccsc1C(=O)Nc1ccc(F)c([N+](=O)[O-])c1 | inconclusive: 29.1 µM [rising, single point] | – | –
Cc1cc(C(=O)NCCN2CCOCC2)ccc1[N+](=O)[O-] | – | inconclusive: -8.46% | –
COc1ccc(N2C(=O)C3CCCN3C2c2ccc(C)o2)cc1 (stereo unspecified) | – | inconclusive: 16.8% | –
Cc1ccc(NC(=O)/C=C/c2cccs2)c([N+](=O)[O-])c1 | inconclusive: 6.51 µM [cytotoxic, single point] | – | –
CCNCCC(=O)N1c2ccccc2Sc2ccc(C(F)(F)F)cc21 | – | inconclusive: 9.2% | –
Cc1c(NC(=O)CSc2nnnn2-c2ccc(O)cc2)c(=O)n(-c2ccccc2)n1C | inconclusive: 1.64 µM [falling, partial curve, poor fit] | – | –
N#Cc1ccsc1NC(=O)CCS(=O)(=O)c1ccccc1 | – | inconclusive: 24.1% | –
CC1CCN(C(=O)c2[nH]cnc2C(=O)NCC(=O)OCc2ccccc2)CC1 | – | – | inactive [at 46.1 µM]
CC(Sc1nc2c(cc1C#N)CCCCC2)C(=O)O (stereo unspecified) | – | inconclusive: 3.29% | –
CCCC(=O)Nc1ccc(C(=O)/C=C/c2ccc(SC)cc2)cc1 | – | inconclusive: -30.7% | –
CCCc1cc(=O)[nH]c(SCC(=O)NC2(C#N)CCCCC2)n1 | – | inconclusive: 7.87% | –
Cc1cc(NC(=O)c2c(-c3c(Cl)cccc3Cl)noc2C)n(C)n1 | – | inconclusive: -4.18% | –
CCOc1cccc(-c2nnc3sc(-c4ccco4)nn23)c1 | – | inconclusive: 21.4% | –
CC(CNC(=O)c1cc(COc2c(F)cccc2F)on1)c1ccccc1 (stereo unspecified) | – | inconclusive: -30.9% | –
Cc1cccc(-c2oc3ccc(-c4ccc5c(c4)OCO5)cc3c2C#Cc2cncn2C)c1 | – | inconclusive: 3.52% | –

Some of the entries so far, in CSV form:
SMILES,Potency,"lipid storage change, negative = inhibition",outcome
O=C(Nc1c2c(nn1-c1ccccc1)CS(=O)(=O)C2)c1ccco1,–,inconclusive: 8.19%,–
COc1cccc2oc3ccc(C#Cc4ccccn4)cc3c(=O)c12,active: 0.731 µM,–,–
